From publication PMC5522442 (Scientific Reports, 2017)

Assay: peptide made by a vendor

PEPTIDE1{Y.E.T.G.C.K.R.C.C.Y.L.D.E.Y.G.C.I.R.C.C}$PEPTIDE1,PEPTIDE1,5:R3-16:R3|PEPTIDE1,PEPTIDE1,8:R3-20:R3|PEPTIDE1,PEPTIDE1,9:R3-19:R3$$$V2.0
oxidative folding yield (oxidative folding step, HPLC peak area before vs after folding): 76.7%
final purity (method not given) (whole synthesis): 85%

Strings that start with PEPTIDE1 are HELM notation: dots part the residues, brackets hold end groups and non-standard residues.
